Measurements as given in the supplement of paper PMC11264405.

Assays:
Assay in all cases: minimum inhibitory concentration
[1] = compound: CC(=O)NC[C@H]1CN(c2ccc(N3CCOCC3)c(F)c2)C(=O)O1 [linezolid]
[2] = compound: CCC[C@@H]1C[C@@H](C(=O)N[C@@H]([C@H]2O[C@H](SC)[C@H](O)[C@@H](O)[C@H]2O)[C@H](C)Cl)N(C)C1 [clindamycin]
[3] = compound: CCc1c(Cl)c(O)c(Cl)c(O)c1C(=O)O[C@H]1[C@H](O)[C@H](OC)[C@H](OC/C2=C\C=C\C[C@H](O)/C(C)=C/[C@H](CC)[C@@H](O[C@@H]3OC(C)(C)[C@@H](OC(=O)C(C)C)[C@H](O)[C@@H]3O)/C(C)=C/C(C)=C/C[C@@H]([C@@H](C)O)OC2=O)O[C@@H]1C [fidaxomicin]
[4] = compound: CN(C)c1cc(NC(=O)CNC(C)(C)C)c(O)c2c1C[C@H]1C[C@H]3[C@H](N(C)C)C(O)=C(C(N)=O)C(=O)[C@@]3(O)C(O)=C1C2=O [tigecycline]
[5] = compound: CN[C@H](CC(C)C)C(=O)N[C@H]1C(=O)N[C@@H](CC(N)=O)C(=O)N[C@H]2C(=O)N[C@H]3C(=O)N[C@H](C(=O)N[C@H](C(=O)O)c4cc(O)cc(O)c4-c4cc3ccc4O)[C@H](O)c3ccc(c(Cl)c3)Oc3cc2cc(c3O[C@@H]2O[C@H](CO)[C@@H](O)[C@H](O)[C@H]2O[C@H]2C[C@](C)(N)[C@H](O)[C@H](C)O2)Oc2ccc(cc2Cl)[C@H]1O [vancomycin]
[6] = compound: CO[C@H]1/C=C/O[C@@]2(C)Oc3c(C)c(O)c4c(O)c(c(/C=N/N5CCN(C)CC5)c(O)c4c3C2=O)NC(=O)/C(C)=C\C=C\[C@H](C)[C@H](O)[C@@H](C)[C@@H](O)[C@@H](C)[C@H](OC(C)=O)[C@@H]1C [rifampicin]
[7] = compound: C[C@@H](O)[C@H]1C(=O)N2C(C(=O)O)=C(SCCNC=N)C[C@H]12 [imipenem]
[8] = compound: C[C@@H](O)[C@H]1C(=O)N2C(C(=O)O)=C(S[C@@H]3CN[C@H](C(=O)N(C)C)C3)[C@H](C)[C@H]12 [meropenem]
[9] = compound: Cc1ncc([N+](=O)[O-])n1CCO [metronidazole]

Test System	minimum inhibitory concentration [1]	minimum inhibitory concentration [2]	minimum inhibitory concentration [3]	minimum inhibitory concentration [4]	minimum inhibitory concentration [5]	minimum inhibitory concentration [6]	minimum inhibitory concentration [7]	minimum inhibitory concentration [8]	minimum inhibitory concentration [9]
Clostridioides difficile PCR ribotype 193 isolate #398 (European region: South, country: Spain, isolate source: Animal, ribotype: 193)	2 µg/mL	4 µg/mL	0.03 µg/mL	0.06 µg/mL	0.5 µg/mL	< 0.001 µg/mL	1 µg/mL	4 µg/mL	0.25 µg/mL
Clostridioides difficile PCR ribotype 204 isolate #399 (European region: West, country: France, isolate source: Animal, ribotype: 204)	2 µg/mL	> 128 µg/mL	0.015 µg/mL	< 0.03 µg/mL	0.5 µg/mL	< 0.001 µg/mL	1 µg/mL	4 µg/mL	0.25 µg/mL
Clostridioides difficile PCR ribotype 216 isolate #256 (European region: West, country: France, isolate source: Human, ribotype: 216)	1 µg/mL	0.5 µg/mL	0.06 µg/mL	0.125 µg/mL	0.5 µg/mL	< 0.001 µg/mL	1 µg/mL	4 µg/mL	0.25 µg/mL
Clostridioides difficile PCR ribotype 216 isolate #257 (European region: West, country: France, isolate source: Human, ribotype: 216)	< 0.125 µg/mL	8 µg/mL	0.03 µg/mL	0.125 µg/mL	0.5 µg/mL	< 0.001 µg/mL	2 µg/mL	4 µg/mL	0.25 µg/mL
Clostridioides difficile PCR ribotype 254 isolate #258 (European region: North, country: Sweden, isolate source: Human, ribotype: 254)	2 µg/mL	1 µg/mL	0.015 µg/mL	< 0.03 µg/mL	1 µg/mL	< 0.001 µg/mL	2 µg/mL	4 µg/mL	< 0.125 µg/mL
Clostridioides difficile PCR ribotype 277 isolate #259 (European region: North, country: UK, isolate source: Human, ribotype: 277)	2 µg/mL	0.5 µg/mL	0.015 µg/mL	< 0.03 µg/mL	0.5 µg/mL	< 0.001 µg/mL	2 µg/mL	2 µg/mL	< 0.125 µg/mL
Clostridioides difficile PCR ribotype 293 isolate #260 (European region: North, country: UK, isolate source: Human, ribotype: 293)	2 µg/mL	1 µg/mL	0.06 µg/mL	< 0.03 µg/mL	0.5 µg/mL	< 0.001 µg/mL	2 µg/mL	2 µg/mL	< 0.125 µg/mL
Clostridioides difficile PCR ribotype 356 isolate #262 (European region: South, country: Italy, isolate source: Human, ribotype: 356)	4 µg/mL	16 µg/mL	0.03 µg/mL	0.06 µg/mL	< 0.125 µg/mL	16 µg/mL	4 µg/mL	4 µg/mL	0.5 µg/mL
Clostridioides difficile PCR ribotype 430 isolate #263 (European region: South, country: Spain, isolate source: Human, ribotype: 430)	2 µg/mL	4 µg/mL	0.015 µg/mL	< 0.03 µg/mL	1 µg/mL	0.004 µg/mL	4 µg/mL	4 µg/mL	< 0.125 µg/mL
Clostridioides difficile PCR ribotype 430 isolate #264 (European region: South, country: Spain, isolate source: Human, ribotype: 430)	2 µg/mL	16 µg/mL	0.03 µg/mL	0.06 µg/mL	0.5 µg/mL	< 0.001 µg/mL	4 µg/mL	2 µg/mL	0.25 µg/mL
Clostridioides difficile PCR ribotype 431 isolate #265 (European region: South, country: Spain, isolate source: Human, ribotype: 431)	2 µg/mL	16 µg/mL	0.015 µg/mL	< 0.03 µg/mL	1 µg/mL	0.5 µg/mL	2 µg/mL	2 µg/mL	< 0.125 µg/mL
Clostridioides difficile PCR ribotype 454 isolate #400 (European region: West, country: Netherlands, isolate source: Animal, ribotype: 454)	2 µg/mL	16 µg/mL	0.008 µg/mL	< 0.03 µg/mL	0.5 µg/mL	< 0.001 µg/mL	1 µg/mL	4 µg/mL	< 0.125 µg/mL
Clostridioides difficile PCR ribotype 474 isolate #266 (European region: South, country: Spain, isolate source: Human, ribotype: 474)	2 µg/mL	> 128 µg/mL	0.03 µg/mL	0.06 µg/mL	0.5 µg/mL	0.002 µg/mL	4 µg/mL	4 µg/mL	< 0.125 µg/mL
Clostridioides difficile PCR ribotype 484 isolate #267 (European region: North, country: UK, isolate source: Human, ribotype: 484)	2 µg/mL	2 µg/mL	0.015 µg/mL	< 0.03 µg/mL	0.5 µg/mL	< 0.001 µg/mL	2 µg/mL	2 µg/mL	< 0.125 µg/mL
Clostridioides difficile PCR ribotype 570 isolate #401 (European region: East, country: Romania, isolate source: Animal, ribotype: 570)	2 µg/mL	8 µg/mL	0.03 µg/mL	< 0.03 µg/mL	1 µg/mL	< 0.001 µg/mL	2 µg/mL	2 µg/mL	< 0.125 µg/mL
Clostridioides difficile PCR ribotype 600 isolate #269 (European region: West, country: France, isolate source: Human, ribotype: 600)	2 µg/mL	16 µg/mL	0.125 µg/mL	< 0.03 µg/mL	0.5 µg/mL	< 0.001 µg/mL	4 µg/mL	4 µg/mL	0.25 µg/mL
Clostridioides difficile PCR ribotype 626 isolate #270 (European region: South, country: Spain, isolate source: Human, ribotype: 626)	2 µg/mL	0.5 µg/mL	0.03 µg/mL	< 0.03 µg/mL	1 µg/mL	0.002 µg/mL	2 µg/mL	2 µg/mL	< 0.125 µg/mL
Clostridioides difficile PCR ribotype 695 isolate #402 (European region: West, country: Netherlands, isolate source: Animal, ribotype: 695)	2 µg/mL	< 0.125 µg/mL	0.008 µg/mL	0.06 µg/mL	0.5 µg/mL	< 0.001 µg/mL	1 µg/mL	2 µg/mL	0.5 µg/mL
Clostridioides difficile PCR ribotype 695 isolate #403 (European region: West, country: Netherlands, isolate source: Animal, ribotype: 695)	2 µg/mL	< 0.125 µg/mL	0.03 µg/mL	0.06 µg/mL	0.5 µg/mL	< 0.001 µg/mL	1 µg/mL	2 µg/mL	0.5 µg/mL
Clostridioides difficile PCR ribotype 695 isolate #404 (European region: West, country: Netherlands, isolate source: Animal, ribotype: 695)	2 µg/mL	< 0.125 µg/mL	0.015 µg/mL	0.06 µg/mL	0.5 µg/mL	< 0.001 µg/mL	2 µg/mL	4 µg/mL	< 0.125 µg/mL
Clostridioides difficile PCR ribotype 695 isolate #405 (European region: West, country: Netherlands, isolate source: Animal, ribotype: 695)	2 µg/mL	< 0.125 µg/mL	0.015 µg/mL	0.06 µg/mL	0.5 µg/mL	< 0.001 µg/mL	2 µg/mL	2 µg/mL	< 0.125 µg/mL
Clostridioides difficile PCR ribotype 695 isolate #406 (European region: West, country: Netherlands, isolate source: Animal, ribotype: 695)	2 µg/mL	< 0.125 µg/mL	0.015 µg/mL	0.06 µg/mL	0.5 µg/mL	< 0.001 µg/mL	2 µg/mL	2 µg/mL	< 0.125 µg/mL
Clostridioides difficile PCR ribotype 815 isolate #271 (European region: North, country: UK, isolate source: Human, ribotype: 815)	2 µg/mL	0.5 µg/mL	0.06 µg/mL	0.06 µg/mL	1 µg/mL	< 0.001 µg/mL	2 µg/mL	1 µg/mL	< 0.125 µg/mL
Clostridioides difficile PCR ribotype 815 isolate #272 (European region: East, country: Romania, isolate source: Human, ribotype: 815)	1 µg/mL	0.25 µg/mL	0.03 µg/mL	< 0.03 µg/mL	0.5 µg/mL	< 0.001 µg/mL	4 µg/mL	2 µg/mL	0.25 µg/mL
Clostridioides difficile PCR ribotype 902 isolate #273 (European region: South, country: Spain, isolate source: Human, ribotype: 902)	2 µg/mL	> 128 µg/mL	0.015 µg/mL	0.25 µg/mL	0.5 µg/mL	0.002 µg/mL	4 µg/mL	2 µg/mL	0.25 µg/mL
Clostridioides difficile PCR ribotype 902 isolate #274 (European region: South, country: Spain, isolate source: Human, ribotype: 902)	2 µg/mL	> 128 µg/mL	0.03 µg/mL	0.125 µg/mL	0.5 µg/mL	0.002 µg/mL	2 µg/mL	2 µg/mL	0.25 µg/mL

Single records, as listed above. Order of values: minimum inhibitory concentration [1] | minimum inhibitory concentration [2] | minimum inhibitory concentration [3] | minimum inhibitory concentration [4] | minimum inhibitory concentration [5] | minimum inhibitory concentration [6] | minimum inhibitory concentration [7] | minimum inhibitory concentration [8] | minimum inhibitory concentration [9]
Clostridioides difficile PCR ribotype 277 isolate #259 (European region: North, country: UK, isolate source: Human, ribotype: 277) reads 2 µg/mL | 0.5 µg/mL | 0.015 µg/mL | < 0.03 µg/mL | 0.5 µg/mL | < 0.001 µg/mL | 2 µg/mL | 2 µg/mL | < 0.125 µg/mL
Clostridioides difficile PCR ribotype 454 isolate #400 (European region: West, country: Netherlands, isolate source: Animal, ribotype: 454) reads 2 µg/mL | 16 µg/mL | 0.008 µg/mL | < 0.03 µg/mL | 0.5 µg/mL | < 0.001 µg/mL | 1 µg/mL | 4 µg/mL | < 0.125 µg/mL
